{"sequences": {"note": "By UniProt entry, the sequences of proteins in these tests, tags left out.", "UniProt O35099": "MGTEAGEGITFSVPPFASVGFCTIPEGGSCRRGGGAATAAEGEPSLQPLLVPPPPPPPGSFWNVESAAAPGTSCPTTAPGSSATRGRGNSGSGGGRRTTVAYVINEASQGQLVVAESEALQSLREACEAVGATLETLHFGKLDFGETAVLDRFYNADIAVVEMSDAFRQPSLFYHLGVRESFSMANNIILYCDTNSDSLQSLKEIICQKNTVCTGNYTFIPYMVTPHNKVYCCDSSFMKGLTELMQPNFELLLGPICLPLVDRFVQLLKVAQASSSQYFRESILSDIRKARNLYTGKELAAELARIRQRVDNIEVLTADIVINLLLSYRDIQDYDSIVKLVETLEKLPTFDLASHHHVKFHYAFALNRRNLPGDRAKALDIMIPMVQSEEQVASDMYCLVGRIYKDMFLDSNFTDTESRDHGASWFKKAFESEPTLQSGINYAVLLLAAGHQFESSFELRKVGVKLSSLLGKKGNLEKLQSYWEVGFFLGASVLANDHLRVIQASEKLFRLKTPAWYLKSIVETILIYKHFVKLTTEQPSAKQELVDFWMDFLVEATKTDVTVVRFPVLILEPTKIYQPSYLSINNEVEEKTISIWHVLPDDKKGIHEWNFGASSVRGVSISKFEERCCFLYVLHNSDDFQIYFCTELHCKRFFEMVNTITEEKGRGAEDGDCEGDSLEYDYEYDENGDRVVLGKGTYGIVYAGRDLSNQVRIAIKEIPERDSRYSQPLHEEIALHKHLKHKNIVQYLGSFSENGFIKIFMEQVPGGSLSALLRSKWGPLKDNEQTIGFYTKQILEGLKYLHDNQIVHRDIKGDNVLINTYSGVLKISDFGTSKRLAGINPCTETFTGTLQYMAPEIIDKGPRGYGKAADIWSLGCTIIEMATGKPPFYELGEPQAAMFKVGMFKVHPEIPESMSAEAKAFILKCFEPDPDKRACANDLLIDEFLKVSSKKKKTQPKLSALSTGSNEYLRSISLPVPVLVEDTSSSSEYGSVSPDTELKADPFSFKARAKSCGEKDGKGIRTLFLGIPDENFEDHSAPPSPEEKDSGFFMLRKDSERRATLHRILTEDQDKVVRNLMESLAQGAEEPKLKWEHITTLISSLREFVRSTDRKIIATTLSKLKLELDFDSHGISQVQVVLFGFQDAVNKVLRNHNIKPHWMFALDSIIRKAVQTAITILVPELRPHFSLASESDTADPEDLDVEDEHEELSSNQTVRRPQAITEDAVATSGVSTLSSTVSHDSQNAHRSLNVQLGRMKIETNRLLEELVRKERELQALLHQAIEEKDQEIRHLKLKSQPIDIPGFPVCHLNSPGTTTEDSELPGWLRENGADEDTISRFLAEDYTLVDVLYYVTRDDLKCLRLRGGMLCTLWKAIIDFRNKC"}, "source": "paper PMC7348178", "molecules": {"B1": {"name": "TNF receptor–associated factor 2 (TRAF2) (protein, UniProt P39429 1-501)", "chain": "MAAASVTSPGSLELLQPGFSKTLLGTRLEAKYLCSACKNILRRPFQAQCGHRYCSFCLTSILSSGPQNCAACVYEGLYEEGISILESSSAFPDNAARREVESLPAVCPNDGCTWKGTLKEYESCHEGLCPFLLTECPACKGLVRLSEKEHHTEQECPKRSLSCQHCRAPCSHVDLEVHYEVCPKFPLTCDGCGKKKIPRETFQDHVRACSKCRVLCRFHTVGCSEMVETENLQDHELQRLREHLALLLSSFLEAQASPGTLNQVGPELLQRCQILEQKIATFENIVCVLNREVERVAVTAEACSRQHRLDQDKIEALSNKVQQLERSIGLKDLAMADLEQKVSELEVSTYDGVFIWKISDFTRKRQEAVAGRTPAIFSPAFYTSRYGYKMCLRVYLNGDGTGRGTHLSLFFVVMKGPNDALLQWPFNQKVTLMLLDHNNREHVIDAFRPDVTSSSFQRPVSDMNIASGCPLFCPVSKMEAKNSYVRDDAIFIKAIVDLTGL"}}, "key": {"[1]": {"target": "T1, VEGI‐251 (vascular endothelial growth inhibitor isoform 251), Flag-tagged, overexpressed in TAMs (human) (UniProt O95150)", "T1 sequence": "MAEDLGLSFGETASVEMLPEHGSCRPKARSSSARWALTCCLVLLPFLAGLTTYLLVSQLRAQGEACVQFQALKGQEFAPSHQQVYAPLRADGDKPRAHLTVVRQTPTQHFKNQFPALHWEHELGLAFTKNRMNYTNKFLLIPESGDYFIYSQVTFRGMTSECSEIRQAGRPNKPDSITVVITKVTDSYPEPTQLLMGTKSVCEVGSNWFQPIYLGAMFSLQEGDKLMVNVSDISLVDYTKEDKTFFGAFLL", "assay": "co-IP; lysates of TAMs transiently overexpressing VEGI‐251 or vector control; precipitated with anti‐Flag antibody or IgG, blotted with anti‐ASK1 or anti‐TRAF2"}, "[2]": {"target": "T2, TNF receptor–associated factor 2 (TRAF2) (mouse (endogenous in TAMs)) (UniProt P39429)", "T2 sequence": "B1 chain", "assay": "co-IP; endogenous proteins; TAMs incubated with varying concentrations of rhVEGI‐251 for 4 h; lysates precipitated with protein G–conjugated anti‐TRAF2 antibody, blotted with anti‐ASK1 or anti‐TRAF2; lysis buffer 150 mmol/L NaCl, 25 mmol/L HEPES, 1% NP‐40"}}, "note": "No constants are given. Whether binding was seen depends on the method and setting. In cells and extracts the contact can be indirect. Some results given as binding are weak or reduced against the parent protein; the word gives no strength. For part of these data: Sequences can lack the tags named with a protein.", "data": [{"molecule": "apoptosis signal‐regulating kinase 1 (ASK1) (from UniProt O35099 1-1380)", "values": [{"measurement": "binding", "setting": "[1]", "value": "binds"}, {"measurement": "binding", "setting": "[2]", "value": "binds"}]}, {"molecule": "B1", "values": [{"measurement": "binding", "setting": "[1]", "value": "binds"}]}]}
